The target in test [1] is G433C-C59V-ΔCCt (human) (UniProt P78348). In words: cross-linking; 2 mM BMOE at the cell surface of intact Xenopus oocytes, cell-surface biotinylation, streptavidin beads, SDS-PAGE under reducing conditions, anti-His-tag western blot (ΔCCt background). Background: Immunoblotting shows a protein as a band on a membrane.
The target in test [2] is G433C-C59V-C61S-ΔCCt (human) (UniProt P78348). The test is described as above.

Drawing on article PMC4529235, this text covers binding for 2 molecules.

Substitutions are numbered along the chain they refer to. Names may count otherwise. These are yes or no findings as the source states them, for the method shown. In cells and extracts the contact can be indirect. Some binding calls cover weakened binding; strength is not graded here.

B1: G433C-C59V-ΔCCt (protein, UniProt P78348 1-527)
chain: MELKAEEEEVGGVQPVSIQAFASSSTLHGLAHIFSYERLSLKRALWALCFLGSLAVLLVVCTERVQYYFHYHHVTKLDEVAASQLTFPAVTLCNLNEFRFSQVSKNDLYHAGELLALLNNRYEIPDTQMADEKQLEILQDKANFRSFKPKPFNMREFYDRAGHDIRDMLLSCHFRGEVCSAEDFKVVFTRYGKCYTFNSGRDGRPRLKTMKGGTGNGLEIMLDIQQDEYLPVWGETDETSFEAGIKVQIHSQDEPPFIDQLGFGVAPGFQTFVACQEQRLIYLPPPWGTCKAVTMDSDLDFFDSYSITACRIDCETRYLVENCNCRMVHMPGDAPYCTPEQYKECADPALDFLVEKDQEYCVCEMPCNLTRYGKELSMVKIPSKASAKYLAKKFNKSEQYIGENILVLDIFFEVLNYETIEQKKAYEIAGLLCDIGGQMGLFIGASILTVLELFDYAYEVIKHKLARRGKAQKEAKRSSADKGVALSLDDVKRHNPAESLRGHPAGMTYAANILPHHPARGTFEDFT
With B1, the binding result in test [1] was “binds”.

B2: G433C-C59V-C61S-ΔCCt (protein, UniProt P78348 1-527)
chain: B1 chain with C61S
As for B2, in test [2], the binding entry was “binds”.
